Screen size: about 320,000 compounds; about 22,000 (6.9%) were called active. The inconclusive results got no clear call from the source; some entries with a clear call stand among them for comparison. Calls come from the whole dose curve; as a rule, active = well fitted inhibition curve with a large enough effect; inconclusive = small, poorly fitted or top-dose-only effect, or another doubt; inactive = no such curve, though single readings can be large or run the other way. Potencies of inconclusive entries are doubtful fits and often do not repeat.
Test: Primary qHTS for delayed death inhibitors of the malarial parasite plastid, 96 hour incubation
Details: P. falciparum luciferase reporter growth; series mostly up to 28.7 µM; activity change, negative = inhibition: at the top concentration
Method in brief: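 P. falciparum expressing integrated firefly luciferase grown in erythrocytes (2% hematocrit, 0.05% parasitemia final) with compounds for 96 hours at 37 C, 5% CO2. Growth inhibition read as loss of luminescence after adding luciferase detection reagent.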
% is set by controls: 0 for no effect and ±100 for the full control effect; potency is the fitted concentration of half-maximal effect.

Q: With Cc1nnc(SCC(=O)NC2CCCc3c2cnn3-c2ccc(F)cc2F)o1 (stereo not drawn) as the molecule, how does the Potency read?
A: inconclusive: 18.5 µM [inhibitor, single point]

Q: For COCCN1C(=O)c2oc3ccccc3c(=O)c2C1c1ccc(OC)c(OC)c1 (stereo not drawn), which Potency is on record?
A: inconclusive: 16.5 µM [inhibitor, single point]

Q: For CCN(CC)CCNC(=O)C1CCCCN1S(=O)(=O)c1cccc([N+](=O)[O-])c1 (stereo not drawn), which Potency is on record?
A: inconclusive: 13.1 µM [inhibitor, single point]

Q: With CC(=O)Nc1sc(C)c(C)c1C(=O)OCC(=O)N(CC(C)C)c1c(N)n(Cc2ccccc2)c(=O)[nH]c1=O as the molecule, how does the Potency read?
A: inconclusive: 1.85 µM [inhibitor, partial curve, poor fit]

Q: Which “activity change, negative = inhibition” value does the source give for Nc1cc(N2CCNCC2)c([N+](=O)[O-])cc1Cl here?
A: inactive: 31.6%

Q: Which “activity change, negative = inhibition” value does the source give for CCn1c(CNc2ccc(F)cc2)nnc1SCC#N here?
A: inactive: 16.3%

Q: Which Potency does the source give for Nc1nc2ccc(OC(F)(F)F)cc2s1 here?
A: inconclusive: 8.49 µM [inhibitor, partial curve, poor fit]

Q: For CCN(CC(=O)NCc1ccc(Cl)cc1)C(=O)COc1ccc(C)cc1C, which Potency is on record?
A: inconclusive: 18.5 µM [inhibitor, partial curve, poor fit]

Q: Which Potency does the source give for O=C(CC1C(=O)NCCN1Cc1ccc(F)c(F)c1)NCCn1cccn1 (stereo not drawn) here?
A: inconclusive: 3.7 µM [inhibitor, single point]

Q: For Cc1cc(OCC(=O)c2ccc(F)cc2)ccc1N1C(=O)CCC1=O, which Potency is on record?
A: active: 9.28 µM

Q: For CC(=O)c1cc2c(cc1NC(=O)CCc1c(C)nc3ncnn3c1C)OCO2, which “activity change, negative = inhibition” value is on record?
A: inactive: -18.2%

Q: With CCN(CC)CCN(C(=O)c1cc2ccccc2cc1OC)c1nc2ccc(OC)cc2s1 as the molecule, how does the Potency read?
A: inconclusive: 18.5 µM [inhibitor, single point]

Q: Which Potency does the source give for COc1ccccc1CC(=O)N1CCN(CCc2ccccc2)CC1 here?
A: inconclusive: 3.7 µM [inhibitor, partial curve, poor fit]

Q: Which Potency does the source give for O=c1[nH]c(CSc2ccccc2)nc2c1oc1ccccc12 here?
A: active: 5.22 µM

Q: For COc1cccc(-n2ccnc2SCC(=O)Nc2ccccc2F)c1, which “activity change, negative = inhibition” value is on record?
A: inactive: 13.9%

Q: For O=C(Cc1ccccc1)N1CCN(c2ccccc2F)CC1, which Potency is on record?
A: inconclusive: 10.4 µM [inhibitor, single point]

Q: For C/C(=N/NS(=O)(=O)c1ccc(C)c(C)c1)c1c[nH]c2ccccc12, which “activity change, negative = inhibition” value is on record?
A: inactive: -2.73%

Q: With O=C(OCC(=O)N1CCCC1)c1ccc(Cl)nc1 as the molecule, how does the Potency read?
A: inconclusive: 1.85 µM [inhibitor, full curve]

Q: Which Potency does the source give for Cc1ccc2c(C(=O)CN3CCC4(CC3)OCCO4)c(C)[nH]c2c1 here?
A: inconclusive: 0.0738 µM [inhibitor, full curve, poor fit]

Q: Which Potency does the source give for Cc1ccc(O)c(C(=O)c2cnc3onc(-c4ccc(F)cc4)c3c2)c1 here?
A: active: 2.33 µM

Q: With CCCCN(C(=O)CSCC(=O)Nc1ccc(C)cc1)c1c(N)n(Cc2ccccc2)c(=O)[nH]c1=O as the molecule, how does the Potency read?
A: inconclusive: 9.28 µM [inhibitor, partial curve]

Q: With CCC(=O)N1CCN(c2nc(-c3ccc(Cl)cc3)cs2)CC1 as the molecule, how does the “activity change, negative = inhibition” value read?
A: inactive: -7%

Q: Which “activity change, negative = inhibition” value does the source give for COc1cccc(C(=O)/C=C/Nc2cc(C)ccc2O)c1 here?
A: inactive: -2.69%

Q: For O=C(CCc1ccccc1)N1CCCC(Nc2ccc(F)cc2)C1 (stereo not drawn), which Potency is on record?
A: inconclusive: 18.5 µM [inhibitor, single point]

Q: With Cn1cc(C(=O)N/N=C/C(Br)=C\c2ccccc2)ccc1=O as the molecule, how does the Potency read?
A: inconclusive: 10.4 µM [inhibitor, single point]

Q: With Cc1ccc(OCC(=O)NCCO)cc1C as the molecule, how does the Potency read?
A: active: 1.31 µM

Q: Which “activity change, negative = inhibition” value does the source give for CC(=O)Nc1ccc(S(=O)(=O)N2CCN(C(=O)c3cccnc3)CC2)cc1 here?
A: inactive: 43.3%

Q: Which Potency does the source give for COc1ccc(OC)c(-c2cc(C3CCN(C(=O)OC(C)(C)C)CC3)[nH]n2)c1 here?
A: active: 10.4 µM

Q: With COc1ccc(C(=O)CSc2nc(SC)ns2)cc1OC as the molecule, how does the Potency read?
A: inconclusive: 2.94 µM [inhibitor, partial curve]

Q: With COc1ccc(N(C)S(=O)(=O)c2cccc(C(=O)NCC3CCCO3)c2)cc1 (stereo not drawn) as the molecule, how does the Potency read?
A: inconclusive: 18.5 µM [inhibitor, single point]

Q: Which “activity change, negative = inhibition” value does the source give for CSc1ccccc1NC(=O)C1=CC(c2ccc(C)cc2)=NS(=O)(=O)N1C here?
A: inactive: 18.9%

Q: For COc1ccc(C(=O)NCC(C)(C)SCc2c(C)cc(C)cc2C)cc1, which Potency is on record?
A: inconclusive: 13.1 µM [inhibitor, single point]

Q: Which “activity change, negative = inhibition” value does the source give for COc1ccc(C2(CNS(=O)(=O)c3ccc(C)cc3)CCOCC2)cc1 here?
A: inactive: 27.8%

Q: Which “activity change, negative = inhibition” value does the source give for Cc1nnc2n1CCCCC2 here?
A: inactive: 23%

Q: Which Potency does the source give for CC(C(=O)Nc1ccc(S(=O)(=O)N2CCCC2)cc1)N1CCN(C(=O)c2ccco2)CC1 (stereo not drawn) here?
A: inconclusive: 4.65 µM [inhibitor, partial curve]

Q: Which Potency does the source give for Cc1ccc(C(=O)Nc2ncn[nH]2)cc1 here?
A: inconclusive: 18.5 µM [inhibitor, single point]

Q: Which Potency does the source give for Clc1ccccc1CN1CCN(c2ncccn2)CC1 here?
A: inconclusive: 10.4 µM [inhibitor, partial curve, poor fit]

Q: Which Potency does the source give for Cc1ccc(C)c(S(=O)(=O)N2CCN(C(C)C(=O)Nc3ccccc3-c3ccccc3)CC2)c1 (stereo not drawn) here?
A: active: 4.15 µM

Q: Which “activity change, negative = inhibition” value does the source give for CCCc1nnc(SCC(=O)N2CCCC2)n1CC1CCCO1 (stereo not drawn) here?
A: inactive: 21.5%

Q: Which “activity change, negative = inhibition” value does the source give for COc1ccc(C(c2nnnn2C2CCCC2)N2CCc3ccccc3C2)cc1OC (stereo not drawn) here?
A: inactive: 34.8%

Q: For CSc1ncccc1C(=O)Nc1cccc(S(=O)(=O)N(C)c2ccccc2)c1, which Potency is on record?
A: inconclusive: 9.28 µM [inhibitor, partial curve, poor fit]

Q: Which Potency does the source give for COc1ccc(/C=C/c2c(-c3ccc(OC)cc3)oc3ccc(-c4ccc(OC)cc4)cc23)cc1 here?
A: inconclusive: 14.7 µM [inhibitor, single point]

Q: With CC(=O)C(C)n1c(CN2CCN(C(=O)c3ccco3)CC2)nc2c1c(=O)n(C)c(=O)n2C (stereo not drawn) as the molecule, how does the “activity change, negative = inhibition” value read?
A: inactive: -7.14%

Q: For COc1cc(CN2CCN(CCCc3ccccc3)CC2CCO)cc(OC)c1 (stereo not drawn), which “activity change, negative = inhibition” value is on record?
A: inactive: 1.56%

Q: For O=C(CN1CCN(C(=O)c2ccc(-c3nc4ccccc4s3)o2)CC1)Nc1ccc(F)cc1, which Potency is on record?
A: active: 13.1 µM

Q: For Cc1ccccc1C(=O)NC1CCN(Cc2nnnn2Cc2ccc(F)cc2)CC1, which “activity change, negative = inhibition” value is on record?
A: inactive: 2.63%

Q: Which “activity change, negative = inhibition” value does the source give for CC(C)C(=O)N=c1sc2cccc(F)c2n1C here?
A: inactive: 22.6%

Q: With C[C@@H](NC(=O)c1[nH]cnc1C(=O)Nc1cccc(Cl)c1)c1ccccc1 as the molecule, how does the Potency read?
A: inconclusive: 14.7 µM [inhibitor, single point]

From PubChem BioAssay AID504834 (National Center for Advancing Translational Sciences (NCATS), 2011)
